Measurements from the supplement of paper PMC9135407.
Several values for one entry are separate records, joined by “and”; a condition that tells them apart may be missing. Equal values may be shown once. Where a name gives a salt, the structure may show the parent alone. ± gives the standard deviation of the averaged measurements. Some of the results follow. Baselines shift from plate to plate; read single values as rough.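 Assay uses culture-activated primary human stellate myofibroblasts; lipid droplet recovery indicates inactivation. Measured: proportion of Hoechst-counted cells over a plate-specific Bodipy cutoff, duplicate wells, DMSO and nortriptyline as per-plate negative and positive controls. A hit scores, control-normalized, above the plate's top-tenth-percentile nortriptyline wells or ranks among its three best wells. Final well concentrations not reported.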

Tested on: primary human hepatic stellate cells (donor 1)
Experiment: percent Bodipy-positive cells; higher = more lipid droplet accumulation
Conditions: 48 h
Protocol: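 Primary lipid accumulation screen in primary human hepatic stellate cell myofibroblasts (donor 1, passage 8) in 384-well plates. 100 nL of library compound was pin-transferred into 30 µL medium in duplicate, and cells were treated for 48 h. The 'Scaled' score combines distance from plate baseline, toxicity and reproducibility penalties, and is normalised to nortriptyline (positive) and DMSO (negative) controls on each plate. A hit is defined as scaled >0.85 or among the top 3 wells per plate.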

[1] = library stock concentration: 3.33 mM
[2] = library stock concentration: 10 mM
[3] = library stock concentration: 80 uM
[4] = library stock concentration: 400 uM
[5] = library stock concentration: 2 mM
[6] = library stock concentration: 1 mM

Q: Cc1[nH]c2ccccc2c1CCNC(=O)c1cccs1 was tested. Which “percent Bodipy-positive cells” value [1] did it give?
A: Its value is 38 ± 5%.

Q: And the “percent Bodipy-positive cells” value [2]?
A: Its value is 42.4 ± 9.7%.

Q: Which “percent Bodipy-positive cells” value [2] does the source give for CCC(=O)c1ccc2c(c1)N(CCCN(C)C)c1ccccc1S2.Cl [Propionylpromazine hydrochloride] here?
A: The value was 93.1 ± 1.1%.

Q: CC(=O)Nc1cc2ccccc2oc1=O [3-Acetamidocoumarin] was tested. Which “percent Bodipy-positive cells” value did it give?
A: The value was 7.13 ± 2.4%.

Q: What does the source list for CC(C)n1cnc2c(NCc3ccccc3)nc(NCCCO)nc21 [Bohemine]?
A: percent Bodipy-positive cells [3]: 8.53 ± 0.093%; percent Bodipy-positive cells [4]: 9.1 ± 2.1%; percent Bodipy-positive cells [5]: 16.3 ± 6.6%; percent Bodipy-positive cells [1]: 11.3 ± 4.3%; percent Bodipy-positive cells [2]: 29.4 ± 2.7%

Q: With N#Cc1c(O)c2c(-c3ccc(-c4ccccc4O)cc3)csc2[nH]c1=O as the compound, how does the “percent Bodipy-positive cells” value [1] read?
A: The value was 6.96 ± 0.91%.

Q: And the “percent Bodipy-positive cells” value [2]?
A: The value was 12.1% and 6.58%.

Q: For COc1cc2c(Nc3ccc(Br)cc3F)ncnc2cc1OCC1CCN(C)CC1 [Vandetanib], which “percent Bodipy-positive cells” value [5] is on record?
A: The value was 79.7 ± 10%.

Q: What about the “percent Bodipy-positive cells” value [2] of the same compound?
A: Its value is 96.8 ± 1.5%.

Q: For Cc1nc2ccc(-n3ncc(C(=O)c4cc5ccccc5[nH]4)c3N)cc2[nH]1, which “percent Bodipy-positive cells” value [3] is on record?
A: Its value is 10.39 ± 0.088%.

Q: And the “percent Bodipy-positive cells” value [4]?
A: Its value is 12.1 ± 2.2%.

Q: And the “percent Bodipy-positive cells” value [5]?
A: Its value is 11 ± 1.1%.

Q: With CCCCC(=O)O[C@H]1CC[C@H]2[C@@H]3CCc4cc(O)ccc4[C@H]3CC[C@]12C as the compound, how does the “percent Bodipy-positive cells” value [2] read?
A: Its value is 78.1 ± 23%.

Q: CCCCC(=O)O[C@H]1CC[C@H]2[C@@H]3CCc4cc(O)ccc4[C@H]3CC[C@]12C [Estradiol valerate] was tested. Which “percent Bodipy-positive cells” value [1] did it give?
A: The value was 20.2 ± 5%.

Q: With O=[N+]([O-])c1ccccc1S(=O)(=O)NCC1CCC(CNCC2CCc3ccccc3C2)CC1 (configuration not stated) [NTNCB hydrochloride] as the compound, how does the “percent Bodipy-positive cells” value [2] read?
A: The value was 96.4 ± 2%.

Q: Cc1ccc(Nc2c(F)cccc2Cl)c(CC(=O)O)c1 [Lumiracoxib] was tested. Which “percent Bodipy-positive cells” value [1] did it give?
A: The value was 15.8 ± 8%.

Q: What about the “percent Bodipy-positive cells” value [2] of the same compound?
A: Its value is 27.8 ± 6.7%.

Q: With Cc1ccc(Nc2c(F)cccc2Cl)c(CC(=O)O)c1 as the compound, how does the “percent Bodipy-positive cells” value [2] read?
A: Its value is 34.5 ± 9.1%.

Q: COc1cc2ncnc(Nc3ccc(F)c(Cl)c3)c2cc1OCCCN1CCOCC1 [Iressa] was tested. Which “percent Bodipy-positive cells” value [2] did it give?
A: The value was 65.1 ± 9.5%.

Q: With CCCCCCCCCCCCCCCC(=O)OC [Palmitic Acid methyl ester] as the compound, how does the “percent Bodipy-positive cells” value [6] read?
A: Its value is 6.763 ± 0.042%.

Q: With CCCCCC(O)C=CC1C(O)CC(O)C1CC=CCCCC(=O)O (stereo not drawn) [8-epi-Prostaglandin F2a] as the compound, how does the “percent Bodipy-positive cells” value [6] read?
A: Its value is 13.6 ± 13%.

Q: Which results are given for O=c1cc(-c2cccc3c2Sc2ccccc2S3)oc(N2CCOCC2)c1?
A: percent Bodipy-positive cells [3]: 8.13 ± 0.52%; percent Bodipy-positive cells [4]: 12.5% and 11.9%; percent Bodipy-positive cells [5]: 16% and 22.4%; percent Bodipy-positive cells [1]: 8.09 ± 3.4%

Q: With CCCCC[C@H](O)/C=C/[C@@H]1[C@@H](C/C=C\CCCC(=O)N(C)C)[C@@H](O)C[C@H]1O [Prostaglandin F2.alpha. dimethyl amide] as the compound, how does the “percent Bodipy-positive cells” value [6] read?
A: The value was 12.9 ± 2.1%.

Q: With Fc1ccc(C(c2ccc(F)cc2)N2CCN(C/C=C/c3ccccc3)CC2)cc1 [Flunarizine dihydrochloride] as the compound, how does the “percent Bodipy-positive cells” value read?
A: Its value is 37.8 ± 11%.

Q: With Fc1ccc(C(c2ccc(F)cc2)N2CCN(C/C=C/c3ccccc3)CC2)cc1 [Flunarizine hydrochloride] as the compound, how does the “percent Bodipy-positive cells” value [2] read?
A: The value was 42.7 ± 1%.

Q: What does the source list for Fc1ccc(C(c2ccc(F)cc2)N2CCN(C/C=C/c3ccccc3)CC2)cc1 [Flunarizine 2HCl]?
A: percent Bodipy-positive cells [1]: 22.3 ± 0.82%; percent Bodipy-positive cells [2]: 45 ± 7.1%

Q: For Fc1ccc(C(c2ccc(F)cc2)N2CCN(C/C=C/c3ccccc3)CC2)cc1 [Flunarizine-2HCl], which “percent Bodipy-positive cells” value (library stock concentration: 4.9 mM) is on record?
A: The value was 19.6 ± 1.1%.

Q: With Oc1ccc([C@H]2COc3cc(O)ccc3C2)cc1 [Equol] as the compound, how does the “percent Bodipy-positive cells” value [1] read?
A: The value was 8.91 ± 0.51%.

Q: What about the “percent Bodipy-positive cells” value [2] of the same compound?
A: The value was 26.3 ± 6.1%.

Q: How did the “percent Bodipy-positive cells” value [6] turn out when Oc1ccc([C@H]2COc3cc(O)ccc3C2)cc1 [(?)-Equol] was run?
A: Its value is 14.1 ± 3.4%.

Q: CN1CCc2c(c3ccccc3n2Cc2ccccc2)C1 [Mebhydrolin naphthalenesulfonate] was tested. Which “percent Bodipy-positive cells” value [2] did it give?
A: The value was 29.9 ± 2.1%.

Q: Which “percent Bodipy-positive cells” value [6] does the source give for CCCCCCCCCCOc1ccc(OCC(=O)Cn2cc(C(=O)OC)c3cc(C(=O)O)ccc32)cc1 here?
A: The value was 11.3 ± 2.8%.

Q: For CCCCC[C@H](O)/C=C/[C@H]1[C@H](O)CC(=O)[C@H]1C/C=C\CCCC(=O)OC(C)C [8-iso Prostaglandin E2 isopropyl ester], which “percent Bodipy-positive cells” value [6] is on record?
A: Its value is 13.6 ± 0.34%.

Q: For CN[C@@H]1[C@H](O[C@H]2[C@H](O[C@H]3[C@H](O)[C@@H](O)[C@H](N=C(N)N)[C@@H](O)[C@@H]3N=C(N)N)O[C@@H](C)[C@]2(O)C=O)O[C@@H](CO)[C@H](O)[C@H]1O [Streptomycin sulfate], which “percent Bodipy-positive cells” value is on record?
A: Its value is 35.6 ± 15%.

Q: And the “percent Bodipy-positive cells” value (library stock concentration: 2.9 mM)?
A: Its value is 16 ± 0.61%.

Q: And the “percent Bodipy-positive cells” value [2]?
A: Its value is 17.3 ± 2.9%.

Q: With Cc1cccc(C(=O)O)c1O as the compound, how does the “percent Bodipy-positive cells” value [2] read?
A: The value was 26.8 ± 7.7%.

Q: O=C(C=Cc1ccccc1)NC(NC(=S)Nc1ccc(Cl)cc1)C(Cl)(Cl)Cl (configuration not stated) was tested. Which “percent Bodipy-positive cells” value [3] did it give?
A: The value was 8.77 ± 5%.

Q: What about the “percent Bodipy-positive cells” value [4] of the same compound?
A: Its value is 9.19 ± 0.91%.

Q: What about the “percent Bodipy-positive cells” value [5] of the same compound?
A: Its value is 16.2 ± 3.7%.

Q: And the “percent Bodipy-positive cells” value [1]?
A: The value was 61.1 ± 7.6%.

Q: What about the “percent Bodipy-positive cells” value [2] of the same compound?
A: Its value is 100% and 87.3%.

Q: Oc1cccc(-c2nc(N3CCOCC3)c3sccc3n2)c1 [PI3-Kinase .alpha. Inhibitor 2] was tested. Which “percent Bodipy-positive cells” value [6] did it give?
A: The value was 18.7 ± 17%.

Q: For Nc1nc(Cl)nc2c1ncn2[C@H]1C[C@H](O)[C@@H](CO)O1, which “percent Bodipy-positive cells” value [2] is on record?
A: Its value is 15 ± 2.1%.
